At least one structure is not confirmed: it was looked up by name or label, or the drawing left a doubt.
System: IL-22
Assay: IL-22 release by isolated, amplified Th17 lymphocytes stimulated with anti-CD3/anti-CD28 beads (ELISA)
Assay type: cell-based, humains
Details: 10µg/ml
Description: Le but de cette étude est d'évaluer l'activité potentielle d'un extrait de Cistus monspeliensis selon l'invention pour moduler la production de cytokines impliquées dans le psoriasis et la dermatite atopique. Pour se faire, des lymphocytes Th17 isolés et amplifiés à partir du sang circulant de donneurs sont utilisés comme modèle in vitro d'immunopathogénèse du psoriasis. […]
Les lymphocytes T sont triés à partir de cellules sanguines récupérées de poches de sang fournies par l'Etablissement Français du sang, pour obtenir le phénotype suivant : CD4+ CD45RA- CXCR3- CCR6+. Le nombre de lymphocytes Th17 ainsi obtenu est augmenté par une mise en culture de ces cellules en présence d'un mélange de cytokines (IL-2, anti-TNFα et anti-INFγ) pendant deux semaines.
Le test est réalisé sur des lymphocytes Th17 humains isolés et amplifiés en absence (conditions contrôle) ou en présence (traité) des composés à tester et sont stimulés ou non par les facteurs de stimulation anti-CD3/anti-CD28.
Les teneurs des cytokines pro-inflammatoires de Th17 (IL-17 et IL-22) sont quantifiées 24h après la stimulation.
Les lymphocytes sont traités avec les composés à tester 30 minutes avant la stimulation et pendant 24 heures.
La Nicardipine, bloqueur des canaux calciques non-sélectifs a été testée (10 µg/ml), solubilisée également dans le DMSO, est utilisée comme contrôle positif. […]

## COC(=O)C1=C(C)NC(C)=C(C(=O)OCCN(C)Cc2ccccc2)C1c1cccc([N+](=O)[O-])c1 (stereo not shown) [Nicardipine]
  production d'IL-22 (result in words): réduit la production d'IL-22, mais l'inhibition n'atteint pas le seuil de significativité statistique
